Earlier results, collected in US20040096420A1, “Compositions and methods for treating baldness” (priority 2000, published 2004).
At least one structure is not confirmed: it was looked up by name or label, or the drawing left a doubt.

Test system: androgenic alopecia

## Nc1cc(N2CCCCC2)nc(N)[n+]1[O-] [minoxidil, 2,4,pyrimidihediamine6-(1-piperdinyl)-3-oxide]
Minoxidil treatment alone
  hair growth at the apex region of the scalp: stimulate some hair growth
  hair growth at the frontal region of the scalp: has not been shown to be improved
Topical solutions of minoxidil (ROGAINE) alone or with skin penetration enhancers such as DMSO, androgenic alopecia patients, Katz, 1988
  patients with moderate regrowth of hair: less than 40%
